Laboratory results published in the supplement of paper PMC10849652.
Some of the results follow.

Chains of the proteins cited; added tags and fusions are not shown. Lines headed by an entry give the natural chain unless they say otherwise; changes in a name come on top.
UniProt Q8N3P4: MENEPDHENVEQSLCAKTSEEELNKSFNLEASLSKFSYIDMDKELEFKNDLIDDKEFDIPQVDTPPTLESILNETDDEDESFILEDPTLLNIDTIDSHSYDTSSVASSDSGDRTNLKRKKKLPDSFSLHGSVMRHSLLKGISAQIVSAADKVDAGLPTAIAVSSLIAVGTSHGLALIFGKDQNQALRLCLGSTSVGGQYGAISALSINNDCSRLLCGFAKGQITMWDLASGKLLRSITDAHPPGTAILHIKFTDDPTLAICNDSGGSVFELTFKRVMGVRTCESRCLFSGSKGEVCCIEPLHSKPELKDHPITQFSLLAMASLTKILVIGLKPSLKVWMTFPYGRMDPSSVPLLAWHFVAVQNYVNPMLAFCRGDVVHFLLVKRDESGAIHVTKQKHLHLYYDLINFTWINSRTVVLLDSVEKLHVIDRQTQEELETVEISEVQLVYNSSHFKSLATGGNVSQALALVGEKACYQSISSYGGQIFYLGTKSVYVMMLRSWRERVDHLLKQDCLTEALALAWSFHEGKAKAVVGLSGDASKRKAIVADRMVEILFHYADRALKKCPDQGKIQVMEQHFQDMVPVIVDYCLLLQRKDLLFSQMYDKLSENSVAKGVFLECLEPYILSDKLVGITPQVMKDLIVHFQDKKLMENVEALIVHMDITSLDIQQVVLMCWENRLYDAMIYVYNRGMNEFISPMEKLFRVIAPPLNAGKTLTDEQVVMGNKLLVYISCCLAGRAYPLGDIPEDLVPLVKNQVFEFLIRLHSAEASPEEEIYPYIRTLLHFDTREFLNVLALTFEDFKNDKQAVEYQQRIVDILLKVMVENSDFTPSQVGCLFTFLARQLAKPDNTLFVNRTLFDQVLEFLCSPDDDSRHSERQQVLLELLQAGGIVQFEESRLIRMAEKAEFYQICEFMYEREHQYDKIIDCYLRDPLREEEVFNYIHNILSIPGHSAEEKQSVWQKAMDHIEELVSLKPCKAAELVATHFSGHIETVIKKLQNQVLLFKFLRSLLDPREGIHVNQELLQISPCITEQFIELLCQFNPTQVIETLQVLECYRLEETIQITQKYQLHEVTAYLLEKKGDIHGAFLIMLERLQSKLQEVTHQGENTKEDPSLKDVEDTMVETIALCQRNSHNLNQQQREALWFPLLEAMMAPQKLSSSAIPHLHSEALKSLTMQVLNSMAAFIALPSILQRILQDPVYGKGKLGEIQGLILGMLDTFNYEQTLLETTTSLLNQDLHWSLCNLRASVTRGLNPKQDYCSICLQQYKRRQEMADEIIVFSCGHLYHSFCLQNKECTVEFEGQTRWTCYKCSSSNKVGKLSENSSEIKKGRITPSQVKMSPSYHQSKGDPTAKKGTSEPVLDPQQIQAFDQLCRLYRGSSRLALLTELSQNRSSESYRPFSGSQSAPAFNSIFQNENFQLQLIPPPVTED
UniProt Q9H267: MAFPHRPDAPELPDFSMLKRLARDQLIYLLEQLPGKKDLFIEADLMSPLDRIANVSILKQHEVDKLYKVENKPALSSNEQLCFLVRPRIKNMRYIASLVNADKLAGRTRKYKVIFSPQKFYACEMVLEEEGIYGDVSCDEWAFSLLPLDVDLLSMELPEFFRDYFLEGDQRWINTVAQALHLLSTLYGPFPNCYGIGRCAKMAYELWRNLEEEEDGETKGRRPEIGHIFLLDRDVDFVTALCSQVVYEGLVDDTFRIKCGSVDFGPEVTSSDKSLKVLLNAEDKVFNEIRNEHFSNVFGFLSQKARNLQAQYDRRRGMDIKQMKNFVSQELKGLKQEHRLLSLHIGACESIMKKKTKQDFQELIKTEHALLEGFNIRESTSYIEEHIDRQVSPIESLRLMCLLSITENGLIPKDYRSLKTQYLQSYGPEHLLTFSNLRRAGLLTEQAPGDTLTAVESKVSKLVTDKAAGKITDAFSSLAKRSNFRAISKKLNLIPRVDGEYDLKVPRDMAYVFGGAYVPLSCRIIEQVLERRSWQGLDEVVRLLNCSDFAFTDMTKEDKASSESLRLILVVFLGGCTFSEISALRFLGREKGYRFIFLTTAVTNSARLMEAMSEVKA
UniProt O15213: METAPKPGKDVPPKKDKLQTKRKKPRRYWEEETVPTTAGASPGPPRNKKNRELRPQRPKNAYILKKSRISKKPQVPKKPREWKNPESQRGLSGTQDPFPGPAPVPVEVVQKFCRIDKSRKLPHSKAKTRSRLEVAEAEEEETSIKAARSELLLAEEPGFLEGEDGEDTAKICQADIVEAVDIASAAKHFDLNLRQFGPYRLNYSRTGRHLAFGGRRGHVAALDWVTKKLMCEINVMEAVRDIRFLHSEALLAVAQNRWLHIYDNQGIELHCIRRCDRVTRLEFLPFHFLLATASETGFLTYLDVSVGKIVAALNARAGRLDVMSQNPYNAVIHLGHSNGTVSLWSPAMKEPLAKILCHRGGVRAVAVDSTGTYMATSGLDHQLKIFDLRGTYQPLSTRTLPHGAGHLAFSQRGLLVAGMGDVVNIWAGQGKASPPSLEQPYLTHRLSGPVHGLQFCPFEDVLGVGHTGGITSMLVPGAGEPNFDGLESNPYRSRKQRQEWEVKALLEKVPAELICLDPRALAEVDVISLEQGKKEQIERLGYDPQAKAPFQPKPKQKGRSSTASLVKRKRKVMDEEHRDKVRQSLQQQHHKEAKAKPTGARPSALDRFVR
UniProt Q5VIR6: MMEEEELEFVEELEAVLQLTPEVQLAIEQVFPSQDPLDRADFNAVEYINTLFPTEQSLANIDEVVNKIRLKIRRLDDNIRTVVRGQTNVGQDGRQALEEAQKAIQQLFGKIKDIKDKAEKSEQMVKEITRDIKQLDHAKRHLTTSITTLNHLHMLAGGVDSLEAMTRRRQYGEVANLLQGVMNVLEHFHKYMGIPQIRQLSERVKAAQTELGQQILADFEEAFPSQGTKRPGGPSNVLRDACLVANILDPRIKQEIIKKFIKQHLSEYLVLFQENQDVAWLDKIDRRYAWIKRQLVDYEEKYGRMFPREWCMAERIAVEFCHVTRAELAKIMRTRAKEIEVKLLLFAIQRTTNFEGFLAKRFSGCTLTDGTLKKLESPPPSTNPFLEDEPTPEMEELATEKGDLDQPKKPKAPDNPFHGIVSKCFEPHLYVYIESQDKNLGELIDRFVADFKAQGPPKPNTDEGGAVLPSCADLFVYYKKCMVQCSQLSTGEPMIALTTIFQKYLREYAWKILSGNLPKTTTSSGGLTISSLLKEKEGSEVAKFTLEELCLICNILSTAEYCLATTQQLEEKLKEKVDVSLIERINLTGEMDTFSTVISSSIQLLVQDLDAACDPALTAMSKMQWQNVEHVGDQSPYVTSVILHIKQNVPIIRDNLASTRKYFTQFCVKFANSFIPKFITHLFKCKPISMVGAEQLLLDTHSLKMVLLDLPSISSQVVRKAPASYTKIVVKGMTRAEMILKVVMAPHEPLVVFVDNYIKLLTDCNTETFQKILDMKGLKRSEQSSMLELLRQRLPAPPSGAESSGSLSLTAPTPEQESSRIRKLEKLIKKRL
UniProt A4D1P6: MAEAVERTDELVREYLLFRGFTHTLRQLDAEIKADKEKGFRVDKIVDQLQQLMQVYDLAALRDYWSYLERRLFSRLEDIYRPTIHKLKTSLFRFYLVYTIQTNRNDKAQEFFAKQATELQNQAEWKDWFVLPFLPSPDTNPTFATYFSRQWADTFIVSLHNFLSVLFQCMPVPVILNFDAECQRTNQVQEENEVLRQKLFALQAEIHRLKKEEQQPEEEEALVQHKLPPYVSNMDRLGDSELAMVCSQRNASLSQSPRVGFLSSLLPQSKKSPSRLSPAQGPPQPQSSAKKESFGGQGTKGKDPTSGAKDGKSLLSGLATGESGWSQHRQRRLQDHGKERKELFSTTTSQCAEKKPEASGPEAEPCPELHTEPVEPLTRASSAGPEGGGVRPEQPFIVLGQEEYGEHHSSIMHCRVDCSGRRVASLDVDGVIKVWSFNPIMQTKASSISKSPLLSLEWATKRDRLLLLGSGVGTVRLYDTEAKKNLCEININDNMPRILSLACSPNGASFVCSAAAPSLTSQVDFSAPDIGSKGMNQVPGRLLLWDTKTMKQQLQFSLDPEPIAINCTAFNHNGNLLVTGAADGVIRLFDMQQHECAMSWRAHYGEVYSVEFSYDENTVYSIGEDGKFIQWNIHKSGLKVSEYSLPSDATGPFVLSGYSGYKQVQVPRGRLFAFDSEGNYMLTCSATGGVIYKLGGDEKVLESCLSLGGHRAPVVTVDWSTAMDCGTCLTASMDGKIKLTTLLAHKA
UniProt P98170, whole entry, looked up: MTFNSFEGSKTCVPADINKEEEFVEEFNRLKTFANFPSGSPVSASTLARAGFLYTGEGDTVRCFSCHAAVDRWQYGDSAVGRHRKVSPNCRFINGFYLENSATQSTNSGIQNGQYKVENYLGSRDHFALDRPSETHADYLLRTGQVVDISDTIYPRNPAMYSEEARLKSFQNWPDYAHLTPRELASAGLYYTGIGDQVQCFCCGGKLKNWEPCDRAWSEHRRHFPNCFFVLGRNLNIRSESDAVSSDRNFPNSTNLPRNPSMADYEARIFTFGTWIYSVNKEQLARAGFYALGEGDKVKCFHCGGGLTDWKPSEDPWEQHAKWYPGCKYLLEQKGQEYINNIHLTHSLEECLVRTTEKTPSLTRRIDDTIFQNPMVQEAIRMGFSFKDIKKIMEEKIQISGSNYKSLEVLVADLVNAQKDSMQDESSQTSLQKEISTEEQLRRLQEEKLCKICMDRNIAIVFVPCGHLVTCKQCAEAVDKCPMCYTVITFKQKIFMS
UniProt Q8NEZ3: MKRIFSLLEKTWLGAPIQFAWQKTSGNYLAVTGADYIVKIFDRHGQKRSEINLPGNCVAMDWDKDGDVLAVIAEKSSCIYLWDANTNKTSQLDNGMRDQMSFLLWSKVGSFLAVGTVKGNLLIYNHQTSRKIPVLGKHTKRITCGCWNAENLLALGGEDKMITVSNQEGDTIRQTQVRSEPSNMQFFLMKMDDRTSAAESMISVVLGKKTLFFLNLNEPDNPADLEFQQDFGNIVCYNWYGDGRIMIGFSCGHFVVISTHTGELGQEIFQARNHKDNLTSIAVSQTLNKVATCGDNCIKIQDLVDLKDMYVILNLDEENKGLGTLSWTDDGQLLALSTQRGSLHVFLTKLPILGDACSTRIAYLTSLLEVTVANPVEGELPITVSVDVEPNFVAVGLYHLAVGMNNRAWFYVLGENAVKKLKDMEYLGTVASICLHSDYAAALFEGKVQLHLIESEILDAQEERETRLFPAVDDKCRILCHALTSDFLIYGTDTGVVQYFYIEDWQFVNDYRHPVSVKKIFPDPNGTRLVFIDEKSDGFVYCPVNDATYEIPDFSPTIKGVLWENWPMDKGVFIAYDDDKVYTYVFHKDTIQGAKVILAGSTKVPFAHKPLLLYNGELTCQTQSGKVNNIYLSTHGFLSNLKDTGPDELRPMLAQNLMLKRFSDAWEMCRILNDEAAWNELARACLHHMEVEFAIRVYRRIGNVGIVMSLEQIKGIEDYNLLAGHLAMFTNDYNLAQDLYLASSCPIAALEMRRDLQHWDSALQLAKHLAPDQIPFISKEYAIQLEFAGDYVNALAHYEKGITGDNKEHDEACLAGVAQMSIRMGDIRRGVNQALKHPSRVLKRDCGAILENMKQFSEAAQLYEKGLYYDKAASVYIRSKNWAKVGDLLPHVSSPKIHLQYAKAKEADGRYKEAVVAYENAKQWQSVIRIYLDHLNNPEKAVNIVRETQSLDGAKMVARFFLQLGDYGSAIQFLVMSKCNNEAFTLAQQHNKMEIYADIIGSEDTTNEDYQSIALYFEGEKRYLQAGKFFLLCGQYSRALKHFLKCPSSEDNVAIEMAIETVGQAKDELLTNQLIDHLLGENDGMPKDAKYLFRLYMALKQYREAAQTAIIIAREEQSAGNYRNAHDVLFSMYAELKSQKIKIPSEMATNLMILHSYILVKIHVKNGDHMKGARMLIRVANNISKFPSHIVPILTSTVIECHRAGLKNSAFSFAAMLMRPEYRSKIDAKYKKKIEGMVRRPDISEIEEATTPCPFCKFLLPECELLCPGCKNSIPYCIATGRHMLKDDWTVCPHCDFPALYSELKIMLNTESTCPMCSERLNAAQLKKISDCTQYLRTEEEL
UniProt O75554: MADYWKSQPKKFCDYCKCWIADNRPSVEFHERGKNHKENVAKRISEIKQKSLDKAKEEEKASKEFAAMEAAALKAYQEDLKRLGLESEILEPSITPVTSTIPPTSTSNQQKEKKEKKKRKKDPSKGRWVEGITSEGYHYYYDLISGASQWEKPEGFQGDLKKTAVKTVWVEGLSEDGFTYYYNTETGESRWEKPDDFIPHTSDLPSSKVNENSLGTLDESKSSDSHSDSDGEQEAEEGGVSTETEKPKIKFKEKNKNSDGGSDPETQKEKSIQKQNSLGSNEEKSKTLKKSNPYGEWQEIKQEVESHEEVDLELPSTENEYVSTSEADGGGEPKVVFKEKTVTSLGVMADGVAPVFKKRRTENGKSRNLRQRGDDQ

Key:
Assay in all cases: log2 fold change, soluble protein after heating vs DMSO (PISA); higher = thermal stabilisation; K562 cells, 10 uM, 30 min; active = over 0.2 and 3.5 SD of the protein, either way, in both replicates (recomputed)
saracatinib = compound: CN1CCN(CCOc2cc(OC3CCOCC3)c3c(Nc4c(Cl)ccc5c4OCO5)ncnc3c2)CC1 [saracatinib]
How it was run: (§1)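 For each measurement, 10 μM compound was applied for 30 min to K562 cells at 2×10^6 cells/mL. Aliquots were heated for 3 min across 48°C-58°C, pooled, and extracted in PBS with 0.5% NP-40 at 4°C; the supernatant after 21,000xg for 90 min was soluble protein. This was quantified by TMTpro 16plex LC-MS/MS with channel sums equalised, and thermal stability was reported relative to control samples from duplicates, on a log2 fold-change scale.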

sotrastaurin = compound: CN1CCN(c2nc(C3=C(c4c[nH]c5ccccc45)C(=O)NC3=O)c3ccccc3n2)CC1 [sotrastaurin]
How it was run: as §1

Tubastatin A = compound: CN1CCc2c(c3ccccc3n2Cc2ccc(C(=O)NO)cc2)C1 [Tubastatin A]
How it was run: as §1

[1] = compound: CNC(=O)C1=CC=CC=C1NC2=NC(=NC=C2Cl)NC3=C(C=C(C=C3)N4CCOCC4)OC
How it was run: as §1

defactinib = compound: CNC(=O)c1ccc(Nc2ncc(C(F)(F)F)c(NCc3nccnc3N(C)S(C)(=O)=O)n2)cc1 [defactinib]
How it was run: as §1

rucaparib = compound: CNCc1ccc(-c2[nH]c3cc(F)cc4c3c2CCNC4=O)cc1 [rucaparib]
How it was run: as §1

[2] = compound: CNc1nc(-c2ccc3c(N)n[nH]c3c2)cc(N2C[C@@H](C(=O)NC3CCCCC3)CC[C@H]2C)n1
How it was run: as §1

encorafenib = compound: COC(=O)N[C@@H](C)CNc1nccc(-c2cn(C(C)C)nc2-c2cc(Cl)cc(NS(C)(=O)=O)c2F)n1 [encorafenib]
How it was run: as §1

[3] = compound: COC(=O)[C@H](CCSC)NC(=O)C1=C(C=C(C=C1)NC[C@H](CS)N)C2=CC=CC=C2
How it was run: as §1

[4] = compound: COC1=CC=C(C=C1)CN2C=CC3=C2C=C(C=C3)C(=O)NO
How it was run: as §1

filanesib = compound: CON(C)C(=O)N1N=C(c2cc(F)ccc2F)S[C@@]1(CCCN)c1ccccc1 [filanesib]
How it was run: as §1

zotarolimus = compound: CO[C@H]1C[C@@H]2CC[C@@H](C)[C@@](O)(O2)C(=O)C(=O)N2CCCC[C@H]2C(=O)O[C@H]([C@H](C)C[C@@H]2CC[C@H](n3cnnn3)[C@H](OC)C2)CC(=O)[C@H](C)/C=C(\C)[C@@H](O)[C@@H](OC)C(=O)[C@H](C)C[C@H](C)/C=C/C=C/C=C/1C [zotarolimus]
How it was run: as §1

idasanutlin = compound: COc1cc(C(=O)O)ccc1NC(=O)[C@@H]1N[C@@H](CC(C)(C)C)[C@](C#N)(c2ccc(Cl)cc2F)[C@H]1c1cccc(Cl)c1F [idasanutlin]
How it was run: as §1

alisertib = compound: COc1cc(Nc2ncc3c(n2)-c2ccc(Cl)cc2C(c2c(F)cccc2OC)=NC3)ccc1C(=O)O [alisertib]
How it was run: as §1

[5] = compound: COc1cc2nc(-c3cc(F)ccc3O)nc(N[C@@H]3CNC[C@H]3C(C)(C)O)c2cc1OC
How it was run: as §1

gefitinib = compound: COc1cc2ncnc(Nc3ccc(F)c(Cl)c3)c2cc1OCCCN1CCOCC1 [gefitinib]
How it was run: as §1

[6] = compound: COc1cccc2cc(-c3nc([C@H]4CC[C@H](C(=O)O)CC4)n4ncnc(N)c34)[nH]c12
How it was run: as §1

lapatinib = compound: CS(=O)(=O)CCNCc1ccc(-c2ccc3ncnc(Nc4ccc(OCc5cccc(F)c5)c(Cl)c4)c3c2)o1 [lapatinib]
How it was run: as §1

pictilisib = compound: CS(=O)(=O)N1CCN(Cc2cc3nc(-c4cccc5[nH]ncc45)nc(N4CCOCC4)c3s2)CC1 [pictilisib]
How it was run: as §1

alvocidib = compound: CN1CC[C@H](c2c(O)cc(O)c3c(=O)cc(-c4ccccc4Cl)oc23)[C@H](O)C1 [alvocidib]
How it was run: as §1

Measured: log2 fold change

VPS35L (UniProt Q7Z3J2)
inactive: saracatinib 0.013 | sotrastaurin -0.141 | Tubastatin A -0.015 | [1] -0.016 | defactinib -0.081 | rucaparib 0.018 | [2] 0.045 | encorafenib -0.001 | [3] -0.037 | [4] 0.028 | filanesib 0.049 | zotarolimus -0.016 | idasanutlin -0.118 | alisertib 0.041 | [5] 0.058 | gefitinib 0.059 | [6] -0.032 | lapatinib -0.05 | pictilisib 0.061

VPS8 (UniProt Q8N3P4)
inactive: saracatinib -0.009 | sotrastaurin -0.096 | Tubastatin A 0.09 | [1] 0.002 | defactinib -0.171 | rucaparib 0.023 | [2] -0.015 | encorafenib 0.093 | [3] -0.078 | [4] 0.092 | filanesib 0.001 | zotarolimus 0.043 | idasanutlin -0.03 | alisertib 0.133 | [5] 0.01 | gefitinib 0.076 | [6] -0.025 | lapatinib 0.046 | pictilisib 0.055

VPS33B (UniProt Q9H267)
inactive: saracatinib -0.088 | sotrastaurin -0.117 | Tubastatin A 0.039 | [1] -0.071 | defactinib -0.078 | rucaparib 0.196 | [2] 0.052 | encorafenib 0.111 | [3] -0.058 | [4] 0.027 | filanesib 0.011 | zotarolimus 0.026 | idasanutlin -0.036 | alisertib -0.116 | [5] -0.046 | gefitinib 0.118 | [6] -0.147 | lapatinib 0.011 | pictilisib -0.035

WDR46 (UniProt O15213)
inactive: saracatinib -0.095 | sotrastaurin 0.003 | Tubastatin A 0.101 | [1] 0.101 | defactinib 0.39 | rucaparib 0.289 | [2] 0.084 | encorafenib 0.128 | [3] -0.015 | [4] -0.129 | filanesib 0.425 | zotarolimus 0.075 | idasanutlin 0.156 | alisertib -0.162 | [5] 0.037 | gefitinib -0.036 | [6] -0.018 | lapatinib -0.006 | pictilisib -0.052

VPS53 isoform 4 (UniProt Q5VIR6)
inactive: saracatinib 0.029 | sotrastaurin -0.102 | Tubastatin A 0.017 | [1] -0.009 | defactinib -0.056 | rucaparib 0.061 | [2] -0.028 | encorafenib 0.06 | [3] -0.001 | [4] 0.015 | filanesib -0.008 | zotarolimus 0.095 | idasanutlin -0.048 | alisertib 0.01 | [5] 0.089 | gefitinib 0.025 | [6] 0.003 | lapatinib 0.012 | pictilisib -0.066

WDR91 (UniProt A4D1P6)
inactive: saracatinib -0.079 | alvocidib -0.142 | Tubastatin A 0.118 | defactinib 0.035 | rucaparib 0.091 | [2] 0.083 | encorafenib 0.15 | [3] -0.034 | [4] 0.103 | zotarolimus 0.039 | idasanutlin 0.099 | alisertib 0.27 | [5] -0.084 | [6] -0.03 | lapatinib 0.133

XIAP (UniProt P98170)
inactive: saracatinib -0.149 | sotrastaurin -0.119 | Tubastatin A 0.002 | [1] -0.033 | defactinib -0.12 | rucaparib 0.107 | [2] -0.075 | encorafenib 0.081 | [3] 0.033 | filanesib 0.046 | zotarolimus 0.008 | idasanutlin 0.009 | alisertib 0.089 | [5] 0.085 | gefitinib 0.115 | [6] 0 | lapatinib -0.01 | pictilisib 0.054

WDR19 (UniProt Q8NEZ3)
inactive: saracatinib 0.033 | alvocidib 0.001 | Tubastatin A 0.177 | defactinib 0.035 | rucaparib 0.079 | [2] -0.074 | encorafenib -0.026 | [3] 0.274 | zotarolimus -0.016 | idasanutlin 0.244 | [5] 0.162 | lapatinib -0.13

VPS37B (UniProt Q9H9H4)
inactive: saracatinib -0.012 | sotrastaurin -0.035 | Tubastatin A 0.027 | [1] 0.04 | defactinib -0.082 | rucaparib -0.007 | [2] 0.048 | encorafenib 0.068 | [3] -0.076 | [4] 0.012 | filanesib 0 | idasanutlin -0.053 | alisertib 0 | [5] -0.105 | gefitinib -0.034 | [6] 0.016 | lapatinib 0.124 | pictilisib 0.032

VPS72 isoform 2 (UniProt Q15906)
inactive: saracatinib -0.094 | sotrastaurin 0.004 | Tubastatin A -0.011 | [1] -0.021 | defactinib -0.016 | rucaparib 0.28 | [2] -0.082 | encorafenib -0.053 | [3] -0.019 | filanesib 0.084 | zotarolimus -0.008 | idasanutlin 0.062 | alisertib -0.066 | [5] -0.047 | gefitinib 0.033 | [6] -0.094 | lapatinib 0.012

WBP4 (UniProt O75554)
inactive: saracatinib 0.113 | sotrastaurin 0.012 | Tubastatin A -0.02 | [1] -0.015 | defactinib 0.012 | rucaparib -0.031 | [2] -0.019 | encorafenib -0.046 | [3] 0.045 | [4] 0.001 | filanesib -0.082 | zotarolimus -0.025 | idasanutlin 0.022 | alisertib -0.042 | [5] -0.009 | gefitinib 0.014 | [6] -0.003 | lapatinib 0.05 | pictilisib -0.139
